Experimental data reported in PubChem BioAssay AID2662 (National Center for Advancing Translational Sciences (NCATS), 2010).
In all, about 290,000 compounds went through this assay and about 110 (0.038%) were called active. This list was built around the results that the source calls inconclusive (neither active nor inactive); the mix of calls is not that of the screen. The call rests on the fitted dose curve; in most records, active means well fitted inhibition curve with a large enough effect in the polarisation, with a control signal flat (not every such curve was filed as active); inconclusive means small, poorly fitted or top-dose-only effect, or effect the other way, or a change in a side signal; inactive means no such curve, though single readings can be large or run the other way; the % refers to the polarisation. Potencies beside an inconclusive call are fits to weak or partial responses and may not hold up. A note “side channel” means that the fit belongs to a control or component signal, not to the main read-out.

Protein sequences, listed by entry. Tags and fused reporters are not part of them.
UniProt Q03164, whole entry, looked up: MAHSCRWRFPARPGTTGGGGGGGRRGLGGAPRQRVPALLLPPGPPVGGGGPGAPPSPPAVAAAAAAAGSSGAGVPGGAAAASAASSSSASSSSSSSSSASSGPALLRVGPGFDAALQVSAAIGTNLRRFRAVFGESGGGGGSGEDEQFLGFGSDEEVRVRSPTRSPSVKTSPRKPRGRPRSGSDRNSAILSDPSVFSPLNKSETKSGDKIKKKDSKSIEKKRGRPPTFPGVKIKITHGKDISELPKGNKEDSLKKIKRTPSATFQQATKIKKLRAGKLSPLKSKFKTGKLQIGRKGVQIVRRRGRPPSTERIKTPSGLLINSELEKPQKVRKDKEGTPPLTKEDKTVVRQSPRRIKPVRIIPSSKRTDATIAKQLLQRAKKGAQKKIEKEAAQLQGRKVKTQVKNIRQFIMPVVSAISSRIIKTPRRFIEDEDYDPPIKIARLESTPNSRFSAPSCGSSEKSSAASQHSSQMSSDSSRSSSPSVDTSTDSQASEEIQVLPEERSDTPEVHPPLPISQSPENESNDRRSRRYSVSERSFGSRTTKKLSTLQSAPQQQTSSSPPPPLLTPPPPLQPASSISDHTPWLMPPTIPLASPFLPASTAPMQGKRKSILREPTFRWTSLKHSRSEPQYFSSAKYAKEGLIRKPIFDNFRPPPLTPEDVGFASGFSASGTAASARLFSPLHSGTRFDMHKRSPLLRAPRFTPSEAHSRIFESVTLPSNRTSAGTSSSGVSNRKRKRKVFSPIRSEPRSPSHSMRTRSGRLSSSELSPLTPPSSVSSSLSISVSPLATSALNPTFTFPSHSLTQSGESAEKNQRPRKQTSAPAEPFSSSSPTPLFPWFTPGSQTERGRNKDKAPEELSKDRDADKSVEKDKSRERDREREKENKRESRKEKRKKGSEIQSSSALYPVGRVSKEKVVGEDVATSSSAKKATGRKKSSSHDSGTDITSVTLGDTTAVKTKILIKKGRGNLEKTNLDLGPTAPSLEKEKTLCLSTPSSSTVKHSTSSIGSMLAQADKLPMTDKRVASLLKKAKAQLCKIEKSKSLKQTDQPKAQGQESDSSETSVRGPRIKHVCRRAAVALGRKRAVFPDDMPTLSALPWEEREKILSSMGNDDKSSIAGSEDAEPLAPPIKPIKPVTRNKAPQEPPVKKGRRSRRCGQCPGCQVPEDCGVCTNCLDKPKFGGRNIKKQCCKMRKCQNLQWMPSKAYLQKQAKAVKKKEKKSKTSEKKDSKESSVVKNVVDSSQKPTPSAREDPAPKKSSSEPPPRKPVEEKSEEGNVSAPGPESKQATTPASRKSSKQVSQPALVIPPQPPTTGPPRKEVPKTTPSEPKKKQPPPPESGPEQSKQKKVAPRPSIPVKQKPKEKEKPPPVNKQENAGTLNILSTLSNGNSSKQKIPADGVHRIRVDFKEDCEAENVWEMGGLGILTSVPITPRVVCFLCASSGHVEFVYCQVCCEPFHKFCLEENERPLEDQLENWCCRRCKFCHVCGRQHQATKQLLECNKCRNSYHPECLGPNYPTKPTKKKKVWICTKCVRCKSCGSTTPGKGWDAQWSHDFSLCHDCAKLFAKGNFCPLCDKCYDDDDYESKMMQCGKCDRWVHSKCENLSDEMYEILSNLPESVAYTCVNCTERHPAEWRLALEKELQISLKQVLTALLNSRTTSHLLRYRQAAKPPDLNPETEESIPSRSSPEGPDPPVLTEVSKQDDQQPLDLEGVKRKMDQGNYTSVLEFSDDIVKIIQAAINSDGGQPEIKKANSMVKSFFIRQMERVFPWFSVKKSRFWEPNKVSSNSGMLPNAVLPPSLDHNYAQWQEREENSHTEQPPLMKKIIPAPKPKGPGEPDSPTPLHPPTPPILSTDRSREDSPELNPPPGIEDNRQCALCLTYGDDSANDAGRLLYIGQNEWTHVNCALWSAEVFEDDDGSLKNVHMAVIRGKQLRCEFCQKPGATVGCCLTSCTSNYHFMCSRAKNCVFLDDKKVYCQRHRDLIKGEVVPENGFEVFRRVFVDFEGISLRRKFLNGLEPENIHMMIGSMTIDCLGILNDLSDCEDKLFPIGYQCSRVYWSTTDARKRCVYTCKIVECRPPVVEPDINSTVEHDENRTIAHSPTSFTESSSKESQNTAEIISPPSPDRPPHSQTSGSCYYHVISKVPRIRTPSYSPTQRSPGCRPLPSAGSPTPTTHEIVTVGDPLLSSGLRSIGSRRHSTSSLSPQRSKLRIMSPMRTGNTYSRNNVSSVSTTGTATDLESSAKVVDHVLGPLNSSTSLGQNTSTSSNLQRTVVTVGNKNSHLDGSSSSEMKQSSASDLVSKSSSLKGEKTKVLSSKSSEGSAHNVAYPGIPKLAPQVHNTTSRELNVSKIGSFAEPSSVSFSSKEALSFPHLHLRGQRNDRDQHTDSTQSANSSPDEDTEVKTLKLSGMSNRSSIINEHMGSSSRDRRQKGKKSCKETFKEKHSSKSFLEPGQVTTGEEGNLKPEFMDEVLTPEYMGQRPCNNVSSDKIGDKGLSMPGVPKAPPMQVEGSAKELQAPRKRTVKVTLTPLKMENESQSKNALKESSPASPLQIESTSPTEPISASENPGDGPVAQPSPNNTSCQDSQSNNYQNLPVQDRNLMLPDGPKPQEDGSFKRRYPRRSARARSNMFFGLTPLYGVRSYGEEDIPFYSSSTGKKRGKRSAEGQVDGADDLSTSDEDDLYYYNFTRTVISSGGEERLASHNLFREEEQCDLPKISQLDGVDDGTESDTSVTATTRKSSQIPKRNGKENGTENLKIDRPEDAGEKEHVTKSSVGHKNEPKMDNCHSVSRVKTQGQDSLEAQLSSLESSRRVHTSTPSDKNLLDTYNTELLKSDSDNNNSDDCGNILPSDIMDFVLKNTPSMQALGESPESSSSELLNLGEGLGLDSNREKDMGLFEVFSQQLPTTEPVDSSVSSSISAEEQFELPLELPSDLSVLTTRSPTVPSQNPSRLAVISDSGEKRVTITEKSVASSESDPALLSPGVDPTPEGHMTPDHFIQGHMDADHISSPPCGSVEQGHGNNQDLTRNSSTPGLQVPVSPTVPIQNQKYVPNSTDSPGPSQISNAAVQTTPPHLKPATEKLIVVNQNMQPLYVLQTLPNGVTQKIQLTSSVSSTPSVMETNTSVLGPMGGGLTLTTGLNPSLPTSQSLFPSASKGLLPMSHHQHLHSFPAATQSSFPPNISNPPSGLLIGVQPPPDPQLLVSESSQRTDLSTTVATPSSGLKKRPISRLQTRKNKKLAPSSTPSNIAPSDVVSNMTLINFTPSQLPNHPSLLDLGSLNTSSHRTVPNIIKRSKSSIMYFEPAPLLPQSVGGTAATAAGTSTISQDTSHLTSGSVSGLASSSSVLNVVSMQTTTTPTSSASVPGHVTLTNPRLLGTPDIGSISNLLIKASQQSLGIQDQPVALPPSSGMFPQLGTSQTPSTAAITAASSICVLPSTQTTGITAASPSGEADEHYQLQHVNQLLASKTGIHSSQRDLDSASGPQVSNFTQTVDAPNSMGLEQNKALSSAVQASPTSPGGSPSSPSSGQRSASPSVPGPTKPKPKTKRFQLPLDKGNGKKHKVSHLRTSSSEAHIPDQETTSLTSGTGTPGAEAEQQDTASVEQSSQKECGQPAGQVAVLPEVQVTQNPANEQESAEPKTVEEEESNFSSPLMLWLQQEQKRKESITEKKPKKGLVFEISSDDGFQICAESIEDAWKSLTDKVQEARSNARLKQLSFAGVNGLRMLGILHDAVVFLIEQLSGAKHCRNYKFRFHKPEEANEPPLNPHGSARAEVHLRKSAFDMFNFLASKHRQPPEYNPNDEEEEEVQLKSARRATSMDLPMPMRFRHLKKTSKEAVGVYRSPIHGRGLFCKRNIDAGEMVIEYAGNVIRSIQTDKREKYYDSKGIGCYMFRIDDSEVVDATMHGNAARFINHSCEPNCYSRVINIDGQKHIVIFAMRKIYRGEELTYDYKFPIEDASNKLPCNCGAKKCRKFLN

Biological target: Histone-lysine N-methyltransferase 2A (Homo sapiens) (UniProt Q03164)
Assay: qHTS Fluorescence Polarization Assay for Inhibitors of MLL CXXC domain - DNA interaction
Conditions: MLL-CXXC / FITC-HOXA9 DNA fluorescence polarization; activity change, negative = inhibition: at 115 µM (top of the series)
Method in brief: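 Steps: dispense CXXC domain solution (7 uM) → pin compounds or unlabeled HOX-A9 DNA control → 5 min ambient → add FLSN-HOX-A9 solution (50 nM) → spin → 30 min ambient → fluorescence polarization. Tris pH 7.5/NaCl/DTT/BSA buffer.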
Potency means the concentration at half of the fitted maximal effect.

| SMILES | Potency | activity change, negative = inhibition |
| --- | --- | --- |
| O=C(/C=C/c1ccc(Cl)cc1Cl)NC(=S)Nc1ccc(CN2CCOCC2)cc1 | inconclusive: 35.5 µM [fluorescent, side channel, partial curve] |  |
| CCc1ccc(Nc2n[n+](-c3ccccc3)c(-c3ccc(OC)c(Br)c3)s2)cc1 | inconclusive: 44.7 µM [quencher, side channel, partial curve] |  |
| CC(=O)c1cccc(S(=O)(=O)NC2CCCCCC2)c1 | inconclusive: 50.1 µM [inhibitor, single point] |  |
| CCN(CC)c1ccc2cc(C(C)=O)c(=O)oc2c1 | inconclusive: 8.91 µM [fluorescent, side channel, partial curve] |  |
| C[C@@H](NC(=O)OC(C)(C)C)C(=O)NCC1CCC(C(=O)N[C@@H](Cc2ccccc2)C(=O)O)CC1 (stereo partly specified) | inconclusive: 14.1 µM [fluorescent, side channel, single point] |  |
| COc1ccc(Cn2c(SCc3ccc(C)cc3)nc3cc(OC)c(OC)cc3c2=N)cc1Cl | inconclusive: 35.5 µM [quencher, side channel, partial curve] |  |
| CCC1(c2ccccc2)NC(=O)N(CC(=O)Nc2ccc(OC)nc2)C1=O (stereo unspecified) | inconclusive: 35.5 µM [fluorescent, side channel, partial curve] |  |
| Cn1cc(S(=O)(=O)N2CCCC2)cc1C(=O)Nc1cccc(C(F)(F)F)c1 |  | inactive: -2.38% |
| Cc1ccc(-c2n[nH]c(=S)n2/N=C/c2cccs2)cc1 | inconclusive: 70.8 µM [fluorescent, side channel, single point] |  |
| CCOC(=O)N1CCN(C(=O)c2cc3c(s2)-c2ccc(Cl)cc2S(=O)(=O)C3)CC1 | inconclusive: 70.8 µM [fluorescent, side channel, single point] |  |
| COc1ccc2c(-c3ccccc3)cc(=S)[nH]c2c1 | inconclusive: 35.5 µM [inhibitor, single point] |  |
| O=C(CCCSc1nc2ccccc2[nH]1)N1CCN(c2ccc([N+](=O)[O-])cc2)CC1 |  | inactive: 15.9% |
| COCC(C)n1c(C)cc(C(=O)COC(=O)c2ccc3c(c2)NC(=O)CS3)c1C (stereo unspecified) | inconclusive: 70.8 µM [fluorescent, side channel, single point] |  |
| CCn1c(C)c(C(C)=O)c(N2CCN(C(c3ccccc3)c3ccccc3)CC2)nc1=S | inconclusive: 22.4 µM [fluorescent, side channel, partial curve] |  |
| O=C1C=C(O)C(n2cncn2)C(c2cc(F)ccc2F)C1 (stereo unspecified) | inconclusive: 22.4 µM [inhibitor, partial curve] |  |
| Cn1cc(/C=C2\SC(=S)N(NC(=O)c3ccccc3Cl)C2=O)c2ccccc21 | inconclusive: 25.1 µM [fluorescent, side channel, partial curve] |  |
| CCN(CC)CCOc1c(Br)ccc2c1sc1nc3n(c(=O)c12)CCC3 | inconclusive: 28.2 µM [inhibitor, partial curve] |  |
| CCOC1=NN(c2ccccc2)C(=O)/C1=C\N(C)C | inconclusive: 70.8 µM [fluorescent, side channel, single point] |  |

Part of the list above, with bars between the fields:
SMILES | Potency | activity change, negative = inhibition
CC(=O)c1cccc(S(=O)(=O)NC2CCCCCC2)c1 | inconclusive: 50.1 µM [inhibitor, single point] | 
CCC1(c2ccccc2)NC(=O)N(CC(=O)Nc2ccc(OC)nc2)C1=O (stereo unspecified) | inconclusive: 35.5 µM [fluorescent, side channel, partial curve] | 

Going on with the list:

| SMILES | Potency | activity change, negative = inhibition |
| --- | --- | --- |
| COc1cc2c(cc1OC)-c1cc(Nc3ccccc3Br)nc(=O)n1CC2 |  | inactive: 11.2% |
| O=S(=O)(Nc1nc2ccccc2nc1N1CCN(c2ccccn2)CC1)c1ccc(Cl)cc1 | inconclusive: 15.8 µM [fluorescent, side channel, full curve] |  |
| O=Cc1cn(CCOc2ccccc2)c2ccccc12 |  | inactive: 3.66% |
| CCN(CC)CCCNC(=O)c1cc(Nc2ccc(OC)cc2)nc2ccccc12 | inconclusive: 70.8 µM [fluorescent, side channel, single point] |  |
| COc1ccc(OC)c(Nc2nc(NCCCN(C)C)nc(N)c2[N+](=O)[O-])c1 | inconclusive: 39.8 µM [quencher, side channel, partial curve] |  |
| Cc1ccc(Nc2nc3ccccc3n3cnnc23)cc1C | inconclusive: 44.7 µM [fluorescent, side channel, partial curve] |  |
| COc1ccc(COC(=O)c2c(C)nn(-c3ccccc3)c2Cl)cc1 | inconclusive: 14.1 µM [fluorescent, side channel, single point] |  |
| Fc1ccc(-[n+]2nc(Nc3ccccc3)sc2-c2c3ccccc3cc3ccccc23)cc1 | inconclusive: 20 µM [quencher, side channel, partial curve] |  |
| COc1ccc(N2CCN(C(=O)/C(C#N)=C/c3ccccc3)CC2)cc1 | inconclusive: 14.1 µM [fluorescent, side channel, partial curve] |  |
| CCNc1cccc2c1C(=O)N(C)C2=O | inconclusive: 70.8 µM [fluorescent, side channel, single point] |  |
| Cc1c(C(=O)O)sc2nc(SCC(=O)Nc3ccc(S(=O)(=O)NC(C)(C)C)cc3)[nH]c(=O)c12 | inconclusive: 12.6 µM [fluorescent, side channel, full curve, poor fit] |  |
| CN(C)S(=O)(=O)c1cccc(NC(=S)N/N=C/c2ccc(O)c(O)c2O)c1 |  | inactive: -16.2% |
| Cc1sc2ncnc(OCC(=O)N3CC(=O)Nc4ccccc43)c2c1C | inconclusive: 70.8 µM [fluorescent, side channel, single point] |  |
| Cc1ccc(-c2cc(C(F)F)nc(S(C)(=O)=O)n2)cc1 | inconclusive: 39.8 µM [quencher, side channel, partial curve] |  |
| CC1CCC(O)C/C1=C\C=C1/CCCC2(C)C1CCC2C(C)/C=C/C(C)C(C)C (stereo unspecified) |  | inactive: 5.41% |
| O=C1/C(=C/c2ccc(N3CCOCC3)o2)SC(=Nc2ccccc2)N1CCc1c[nH]c2ccccc12 | inconclusive: 31.6 µM [fluorescent, side channel, partial curve] |  |
| Cn1cc(C(=O)c2ccccc2C(=O)O)cc1C(=O)C(Cl)(Cl)Cl | inconclusive: 63.1 µM [fluorescent, side channel, single point] |  |
| O=[N+]([O-])c1ccc(N/N=C/c2cccc(O)c2O)cc1 | inconclusive: 31.6 µM [quencher, side channel, single point] |  |
